Where two headings read alike, the source gives them in different places.
Details: rinsing 3 sec, 500 ml PET bottle

## OO [hydrogen peroxide]
Condition 1: preheating 50 °C, mist 35 μl, leaving 3.5 sec, hot blast Yes, standing 1.0 sec
  Residual concentration: 0.8 ppm
Condition 2: preheating 50 °C, mist 25 μl, leaving 3.5 sec, hot blast Yes, standing 1.0 sec
  Residual concentration: 0.5 ppm
Condition 3: preheating 50 °C (neck portion not heated from the outside), mist 20 μl, leaving 3.5 sec, hot blast Yes, standing 1.0 sec
  Residual concentration: 0.4 ppm
Condition 4: preheating 50 °C, mist 15 μl, leaving 3.5 sec, hot blast Yes, standing 1.0 sec
  Residual concentration: 0.3 ppm
Condition 5: preheating 50 °C (neck portion heated from the exterior), mist 20 μl, leaving 3.5 sec, hot blast Yes, standing 1.0 sec
  Residual concentration: 0.4 ppm
Condition 6: preheating No, mist 40 μl, leaving 3.5 sec, hot blast Yes, standing 1.0 sec
  Residual concentration: 0.5 ppm
Condition 7: preheating No, mist 20 μl, leaving 3.5 sec, hot blast Yes, standing 1.0 sec
  Residual concentration: 0.2 ppm
Condition 8: preheating 50 °C, mist 30 μl, leaving 0.5 sec, hot blast Yes, standing 3.5 sec
  Residual concentration: 0.5 ppm
Condition 9: preheating 50 °C, mist 20 μl, leaving 0.5 sec, hot blast Yes, standing 3.5 sec
  Residual concentration: 0.2 ppm
Condition 10: preheating 50 °C, mist 20 μl, leaving 3.5 sec, hot blast No, standing 1.0 sec
  Residual concentration: 0.6 ppm
Condition 11: preheating 50 °C, mist 15 μl, leaving 3.5 sec, hot blast No, standing 1.0 sec
  Residual concentration: 0.5 ppm

— patent publication US6919043B2, “Method of sterilization for container, apparatus using therefor and heat treatment for container” (Dai Nippon Printing Co., Ltd., priority 2002, dated 2005)
